Laboratory results: patent publication US20140163203 (published 2014)
Non-standard residues stand in square brackets, D forms with d. *: point of attachment. Trt = c1ccc(C(c2ccccc2)(c2ccccc2)*)cc1; hArg = N=C(N)NCCCC[C@H](N)C(=O)O; OtBu = CC(C)(C)O*; Mpa = O=C(O)CCS

Test: general procedure: solution-phase peptide synthesis; EDAC.HCl/HOBT
Conditions: for purity (crude or final not stated): HPLC

Eptifibatide
crude HPLC purity (cyclisation step): 90%
purity (crude or final not stated) (oxidative folding step): 90%
final HPLC purity (purification step, acetate, run 1): 99.5%
final HPLC purity (purification step, acetate, run 2): 99.5%
final HPLC purity (purification step, acetate, run 3): 99.4%

H-D(OtBu)WPC(Trt)-NH2 [listing 1 of 2 here]
crude HPLC purity (coupling step): 95.2%
final HPLC purity (coupling step): 96%

H-D(OtBu)WPC(Trt)-NH2 [listing 2 of 2 here]
final HPLC purity (coupling step, run 1): 95%
final HPLC purity (coupling step, run 2): 96%

H-GD(OtBu)WPC(Trt)-NH2
purity (crude or final not stated) (coupling step): 95%

[Mpa](Trt)[hArg]GD(OtBu)-OH
purity (crude or final not stated) (coupling step): 95%

[Mpa](Trt)[hArg]GD(OtBu)WPC(Trt)-NH2
crude HPLC purity (coupling step): 90%
final HPLC purity (coupling step): 96%
purity (crude or final not stated) (coupling step): 95%

[Mpa][hArg]GDWPC-NH2 (cysteine pairing not given here)
crude HPLC purity (late stage modification step): 85%
